Assay results: PubChem BioAssay AID588499 (NMMLSC, 2011)
The campaign covered roughly 360,000 compounds. About 610 (0.17%) were called active. Inconclusive results, whose numbers are uncertain, are shown with a selection of clear calls. Cut-off read from the data, not from the text of the source: active = inhibition above about 30%; inconclusive = no clear call, values can overlap the other calls; inactive = below that.

Test system: Botulinum neurotoxin type A light chain protease (Clostridium botulinum A str. ATCC 3502)
Experiment: blockers of BoNT/A LC substrate cleavage – biochemical, flow cytometry, MLPCN library, primary screen (AID 588499); note: plate controls were buffer without enzyme for full effect and enzyme alone for no effect
Conditions: multiplex microsphere protease substrate cleavage, at 10 µM, stronger effect = higher value

Structure (SMILES)	inhibition
COC(=O)c1ccccc1NC(=O)COC(=O)CSCC(=O)N1CCOCC1	inactive: -1.5%
COc1ccc(N/N=C(\C#N)C(=N)N2CCCCC2)cc1	inconclusive: 23.4%
Nc1nc(NCc2ccccc2)nc(Nc2cccc(F)c2)c1[N+](=O)[O-]	inactive: 1.1%
O=C1C=Cc2cccc3ccc(O)c1c23	active: 61.1%
COC(=O)C1=C(C)NC(C)=C(C(=O)OC)C1c1ccc(NC(C)=O)cc1	inactive: -0.1%
CCCC1=NN2C(=N)/C(=C\c3cc(C)n(Cc4ccccc4)c3C)C(=O)N=C2S1	inconclusive: -4.2%
CC(C)Oc1ccc(C2CC(=O)N(Nc3ccc([N+](=O)[O-])cc3[N+](=O)[O-])C2=O)cc1 (configuration not stated)	inconclusive: -10.2%
CCOC(=O)N1CCC(NC(=O)CCc2c(C)nc3ncnn3c2C)CC1	inconclusive: 0.7%
COc1ccccc1N1CCN(Cc2c(F)cccc2F)CC1	inconclusive: 6.6%
CC(C)NC(=S)N/N=C/c1sc(N2CCCCC2)nc1-c1cccs1	active: 32.7%
O=C1CCCC2=C1C(c1cccs1)Nc1ccc3ncccc3c12 (configuration not stated)	inconclusive: -0.4%
Cc1ccc(OCC2Cn3c(nc4c3c(=O)[nH]c(=O)n4C)O2)cc1 (configuration not stated)	inactive: 1.5%
CN(C)S(=O)(=O)c1cccc(NC(=O)CCc2nc3cc(S(=O)(=O)N4CCOCC4)ccc3n2C)c1	inconclusive: 1.8%
Cc1cc(C)c(OCCCNCc2ccccc2)c(Br)c1	inconclusive: -1.8%
N#Cc1c(N)nc2c(c1-c1ccccc1)CCCC2	inconclusive: 0.8%
Cc1cc2c3c(c1)C1(C(=O)N3C(C)(C)CC2C)C(C#N)=C(N)Oc2n[nH]c(C)c21 (configuration not stated)	inconclusive: -1%
O=S(=O)(Nc1ccc2c(c1)OCO2)c1ccccc1	inconclusive: -3.4%
CC(C)(C)OC(=O)NCCC(=O)N/N=C/c1cccc2nccnc12	inconclusive: 19.7%
Cc1cc(SCc2ccc(Br)cc2)nc(=O)[nH]1	inactive: 1.1%

Structure (SMILES)	inhibition
CC(=O)Nc1cccc(NC(=O)CCCC(=O)O)c1	inconclusive: 4.4%
O=C(COc1ccccc1F)NNC(=O)Cc1ccc(S(=O)(=O)N2CCOCC2)s1	inactive: 0.2%
CCC(CC)c1nnc(NC(=O)Oc2ccccc2)s1	inactive: 4%
CCn1c(SCC(=O)Nc2ccc(C(C)=O)cc2)nc2nc3c(cc2c1=O)CCCC3	inconclusive: 0.6%
CCC(=O)N/C(=N/c1nc(C)cc(C)n1)Nc1ccccc1	inconclusive: 10.2%
CN(C)C(=O)CSc1nnc(C23CC4CC(CC(C4)C2)C3)o1	inconclusive: 2.4%
Cc1nc(CC(=O)c2ccc(O)cc2O)cs1	inconclusive: -9.5%
COc1ccc(/C=N/NC(=O)c2cccnc2)cc1COc1ccc([N+](=O)[O-])cc1	inconclusive: 2.2%
CCCn1nc2ccccc2c1P(=N)(N1CCOCC1)N1CCOCC1	inconclusive: 1.3%
N#Cc1cnn(-c2cccc(Cl)c2)c1-n1cccc1	inactive: 0.4%
C/C(=N\n1c(C)nc2ccccc2c1=O)c1ccc(C)o1	inconclusive: -39.8%
CC(NC(=O)COc1ccc(N(C)S(=O)(=O)c2ccccc2)cc1)c1ccccc1 (configuration not stated)	inactive: -0.7%
COCCNC(=O)CSc1nc2cc(OC)c(OC)cc2c(=O)n1Cc1ccc(OC)cc1	inconclusive: -0.5%
O=C(CSc1nc2ccccc2c(=O)n1Cc1ccco1)Nc1cccc(O)c1	inactive: 1.5%
O=C(Nc1cccc(O)c1)C1CC(c2c(F)cccc2Cl)=NO1 (configuration not stated)	inconclusive: 3.4%
CCOc1ccc(/C=C/[N+](=O)[O-])c2ccccc12	active: 47%
CCN(Cc1ccccc1)C(=O)C1CCN(Cc2ccc(OC)c(OC)c2OC)CC1	inconclusive: -1.6%
Cn1nnnc1SCC(=O)NCC(=O)c1ccccc1	inconclusive: 12.2%

Taken from the results shown for reference:
Structure (SMILES)	inhibition
CCOc1ccc(/C=C/[N+](=O)[O-])c2ccccc12	active: 47%
CCN(Cc1ccccc1)C(=O)C1CCN(Cc2ccc(OC)c(OC)c2OC)CC1	inconclusive: -1.6%
Cn1nnnc1SCC(=O)NCC(=O)c1ccccc1	inconclusive: 12.2%
